This is an account of results in paper PMC4997581.

Chains of the proteins cited; added tags and fusions are not shown.
UniProt P16788: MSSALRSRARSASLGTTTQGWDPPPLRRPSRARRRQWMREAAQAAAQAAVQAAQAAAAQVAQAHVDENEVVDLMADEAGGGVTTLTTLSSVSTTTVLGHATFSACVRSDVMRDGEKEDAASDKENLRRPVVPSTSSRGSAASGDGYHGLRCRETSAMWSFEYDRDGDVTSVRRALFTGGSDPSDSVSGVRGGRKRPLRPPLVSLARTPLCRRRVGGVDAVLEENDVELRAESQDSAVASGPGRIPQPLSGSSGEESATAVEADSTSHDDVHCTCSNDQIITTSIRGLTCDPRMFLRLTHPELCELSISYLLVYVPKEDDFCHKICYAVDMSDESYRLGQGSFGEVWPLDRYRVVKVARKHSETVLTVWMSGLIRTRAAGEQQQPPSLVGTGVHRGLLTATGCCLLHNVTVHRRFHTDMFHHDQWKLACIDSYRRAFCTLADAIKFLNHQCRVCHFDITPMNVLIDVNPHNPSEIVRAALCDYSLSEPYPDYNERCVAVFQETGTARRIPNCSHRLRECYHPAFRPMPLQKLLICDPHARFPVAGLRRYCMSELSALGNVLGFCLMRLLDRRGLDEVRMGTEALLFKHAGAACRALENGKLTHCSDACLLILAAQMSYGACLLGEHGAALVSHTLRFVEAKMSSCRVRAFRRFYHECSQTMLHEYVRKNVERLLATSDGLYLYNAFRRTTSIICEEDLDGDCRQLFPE
UniProt P14635: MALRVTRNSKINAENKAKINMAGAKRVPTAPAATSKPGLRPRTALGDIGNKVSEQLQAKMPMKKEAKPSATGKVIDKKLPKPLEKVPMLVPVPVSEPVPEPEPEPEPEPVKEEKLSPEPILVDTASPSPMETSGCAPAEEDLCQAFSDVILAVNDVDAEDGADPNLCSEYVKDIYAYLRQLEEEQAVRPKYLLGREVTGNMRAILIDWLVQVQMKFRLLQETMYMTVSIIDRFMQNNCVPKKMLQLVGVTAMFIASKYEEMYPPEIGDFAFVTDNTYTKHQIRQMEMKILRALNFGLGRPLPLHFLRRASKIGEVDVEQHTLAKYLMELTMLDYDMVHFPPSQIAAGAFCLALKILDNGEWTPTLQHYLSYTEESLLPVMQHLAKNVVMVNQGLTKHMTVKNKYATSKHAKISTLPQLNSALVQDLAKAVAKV

Results are given in words; binding and its absence hold for the method and conditions named. Binding seen in cells or lysates may run through a third protein.

This assay deals with HCMV protein kinase pUL97, Flag-tagged (pUL97-Flag) (human cytomegalovirus) (UniProt P16788). Briefly: co-IP.

On to Cyclin B1 (from UniProt P14635 1-433), for which the binding result was “no binding (condition: 500 mM NaCl in the IP buffer)”.
